The values that follow come from the supplement of paper PMC10849652.

Protein sequences, listed by entry. Tags and fused reporters are not part of them. Lines headed by an entry give the natural chain unless they say otherwise; changes in a name come on top.
UniProt Q13490, whole entry, looked up: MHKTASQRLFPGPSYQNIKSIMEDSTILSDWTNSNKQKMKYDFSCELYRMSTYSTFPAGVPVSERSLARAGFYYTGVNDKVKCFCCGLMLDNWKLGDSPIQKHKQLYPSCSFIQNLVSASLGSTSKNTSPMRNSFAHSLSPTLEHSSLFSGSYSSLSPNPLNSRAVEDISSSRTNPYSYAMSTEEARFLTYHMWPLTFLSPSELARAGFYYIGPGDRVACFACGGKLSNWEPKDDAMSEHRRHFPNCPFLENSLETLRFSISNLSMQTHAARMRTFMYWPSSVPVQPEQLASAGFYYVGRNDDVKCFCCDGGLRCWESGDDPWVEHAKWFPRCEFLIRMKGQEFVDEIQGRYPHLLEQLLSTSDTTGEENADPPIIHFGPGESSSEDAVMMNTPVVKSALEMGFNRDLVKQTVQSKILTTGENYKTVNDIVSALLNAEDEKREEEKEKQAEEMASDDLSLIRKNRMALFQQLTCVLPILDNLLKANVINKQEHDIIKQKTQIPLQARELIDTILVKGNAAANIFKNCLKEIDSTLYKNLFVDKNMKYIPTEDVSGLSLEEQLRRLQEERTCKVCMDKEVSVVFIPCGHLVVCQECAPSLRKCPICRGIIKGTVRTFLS
UniProt Q7KYR7: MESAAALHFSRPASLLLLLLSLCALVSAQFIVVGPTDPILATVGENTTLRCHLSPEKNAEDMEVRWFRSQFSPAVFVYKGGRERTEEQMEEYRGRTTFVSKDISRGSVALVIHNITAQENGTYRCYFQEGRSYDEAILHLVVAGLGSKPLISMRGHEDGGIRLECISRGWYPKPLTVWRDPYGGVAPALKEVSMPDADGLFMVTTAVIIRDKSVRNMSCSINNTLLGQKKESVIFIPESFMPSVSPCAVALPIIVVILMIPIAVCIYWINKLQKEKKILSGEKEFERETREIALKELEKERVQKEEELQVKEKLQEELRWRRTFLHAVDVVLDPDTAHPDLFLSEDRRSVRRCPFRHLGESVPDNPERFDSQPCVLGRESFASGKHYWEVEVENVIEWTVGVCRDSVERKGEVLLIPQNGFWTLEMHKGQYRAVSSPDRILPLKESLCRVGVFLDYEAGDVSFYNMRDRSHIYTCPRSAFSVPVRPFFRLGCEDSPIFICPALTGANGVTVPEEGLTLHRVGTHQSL
UniProt Q96KE9: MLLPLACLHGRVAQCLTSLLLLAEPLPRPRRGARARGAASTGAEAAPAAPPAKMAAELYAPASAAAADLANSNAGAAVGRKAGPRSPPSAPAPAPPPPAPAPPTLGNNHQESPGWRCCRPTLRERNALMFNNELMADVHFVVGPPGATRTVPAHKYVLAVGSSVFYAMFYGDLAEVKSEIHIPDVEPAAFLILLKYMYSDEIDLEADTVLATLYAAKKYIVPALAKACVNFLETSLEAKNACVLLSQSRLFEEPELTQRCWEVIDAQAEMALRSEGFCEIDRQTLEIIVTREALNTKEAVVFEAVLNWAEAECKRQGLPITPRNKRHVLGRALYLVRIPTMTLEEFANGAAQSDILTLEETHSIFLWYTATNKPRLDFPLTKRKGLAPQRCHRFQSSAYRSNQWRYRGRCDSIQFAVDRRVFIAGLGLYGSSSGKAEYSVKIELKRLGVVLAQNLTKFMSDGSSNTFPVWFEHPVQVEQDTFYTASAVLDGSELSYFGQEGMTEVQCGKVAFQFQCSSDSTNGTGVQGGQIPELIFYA
UniProt O75934: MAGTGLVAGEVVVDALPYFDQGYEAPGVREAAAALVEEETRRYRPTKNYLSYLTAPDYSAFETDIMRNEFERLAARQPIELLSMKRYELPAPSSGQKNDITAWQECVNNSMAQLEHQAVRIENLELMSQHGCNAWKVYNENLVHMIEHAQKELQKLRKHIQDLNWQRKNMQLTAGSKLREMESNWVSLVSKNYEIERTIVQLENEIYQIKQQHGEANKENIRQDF
UniProt Q9NW68: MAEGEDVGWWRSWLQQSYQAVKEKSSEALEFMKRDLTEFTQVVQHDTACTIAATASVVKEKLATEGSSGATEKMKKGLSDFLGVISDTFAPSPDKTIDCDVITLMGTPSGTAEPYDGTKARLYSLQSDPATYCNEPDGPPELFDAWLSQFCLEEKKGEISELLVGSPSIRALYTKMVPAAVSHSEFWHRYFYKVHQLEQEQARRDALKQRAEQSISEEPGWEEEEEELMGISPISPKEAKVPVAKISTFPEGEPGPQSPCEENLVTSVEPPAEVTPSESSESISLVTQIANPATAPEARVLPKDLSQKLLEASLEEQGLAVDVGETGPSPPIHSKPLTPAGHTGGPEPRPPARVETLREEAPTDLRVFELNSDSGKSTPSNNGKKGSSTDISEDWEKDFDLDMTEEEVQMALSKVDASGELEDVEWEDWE
UniProt Q86WA6: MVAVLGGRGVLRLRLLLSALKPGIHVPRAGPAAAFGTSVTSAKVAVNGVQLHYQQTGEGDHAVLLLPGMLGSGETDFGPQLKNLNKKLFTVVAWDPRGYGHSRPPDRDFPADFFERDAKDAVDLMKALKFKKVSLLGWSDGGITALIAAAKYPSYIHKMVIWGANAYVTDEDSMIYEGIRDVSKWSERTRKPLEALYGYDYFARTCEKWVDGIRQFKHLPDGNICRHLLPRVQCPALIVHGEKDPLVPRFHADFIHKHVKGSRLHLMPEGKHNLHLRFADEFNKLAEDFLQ
UniProt O95999: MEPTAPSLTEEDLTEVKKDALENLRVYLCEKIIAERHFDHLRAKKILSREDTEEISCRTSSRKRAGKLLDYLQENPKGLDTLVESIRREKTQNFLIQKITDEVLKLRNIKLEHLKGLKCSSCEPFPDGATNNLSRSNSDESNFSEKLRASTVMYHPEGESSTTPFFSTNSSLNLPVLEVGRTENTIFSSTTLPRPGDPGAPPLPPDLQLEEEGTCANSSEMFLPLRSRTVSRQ
UniProt Q92934: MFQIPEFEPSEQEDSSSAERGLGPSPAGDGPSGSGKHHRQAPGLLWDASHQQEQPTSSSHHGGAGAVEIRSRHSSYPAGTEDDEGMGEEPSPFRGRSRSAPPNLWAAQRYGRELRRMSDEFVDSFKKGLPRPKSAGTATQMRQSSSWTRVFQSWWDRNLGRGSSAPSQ
UniProt Q5VW32: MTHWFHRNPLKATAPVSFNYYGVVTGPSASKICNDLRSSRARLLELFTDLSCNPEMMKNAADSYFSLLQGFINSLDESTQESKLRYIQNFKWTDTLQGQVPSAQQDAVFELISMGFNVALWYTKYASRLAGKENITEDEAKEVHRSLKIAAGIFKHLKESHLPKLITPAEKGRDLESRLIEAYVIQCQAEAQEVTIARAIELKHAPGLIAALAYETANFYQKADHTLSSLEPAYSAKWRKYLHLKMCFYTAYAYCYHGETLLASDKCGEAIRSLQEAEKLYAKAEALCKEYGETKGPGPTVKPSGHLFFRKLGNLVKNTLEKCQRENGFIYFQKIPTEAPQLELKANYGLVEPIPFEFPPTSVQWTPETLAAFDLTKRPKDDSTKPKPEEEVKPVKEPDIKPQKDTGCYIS
UniProt Q06187: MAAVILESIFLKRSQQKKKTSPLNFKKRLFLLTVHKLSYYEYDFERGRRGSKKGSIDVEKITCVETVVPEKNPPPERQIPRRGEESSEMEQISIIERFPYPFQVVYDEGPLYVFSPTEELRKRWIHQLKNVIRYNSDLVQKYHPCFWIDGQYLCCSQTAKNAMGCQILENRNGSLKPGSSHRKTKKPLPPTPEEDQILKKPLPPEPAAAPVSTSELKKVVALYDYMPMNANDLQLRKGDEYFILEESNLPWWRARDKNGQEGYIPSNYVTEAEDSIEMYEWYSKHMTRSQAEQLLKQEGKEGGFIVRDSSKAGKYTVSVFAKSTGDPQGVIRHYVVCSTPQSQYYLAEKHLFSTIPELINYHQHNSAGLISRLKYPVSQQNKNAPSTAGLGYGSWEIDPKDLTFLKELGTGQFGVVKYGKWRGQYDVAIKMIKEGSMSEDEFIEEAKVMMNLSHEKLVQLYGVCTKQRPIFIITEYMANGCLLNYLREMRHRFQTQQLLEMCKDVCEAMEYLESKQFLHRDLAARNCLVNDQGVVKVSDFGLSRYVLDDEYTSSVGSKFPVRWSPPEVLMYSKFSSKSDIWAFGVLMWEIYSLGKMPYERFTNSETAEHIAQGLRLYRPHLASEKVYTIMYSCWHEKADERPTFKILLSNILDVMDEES
UniProt Q9UHQ4: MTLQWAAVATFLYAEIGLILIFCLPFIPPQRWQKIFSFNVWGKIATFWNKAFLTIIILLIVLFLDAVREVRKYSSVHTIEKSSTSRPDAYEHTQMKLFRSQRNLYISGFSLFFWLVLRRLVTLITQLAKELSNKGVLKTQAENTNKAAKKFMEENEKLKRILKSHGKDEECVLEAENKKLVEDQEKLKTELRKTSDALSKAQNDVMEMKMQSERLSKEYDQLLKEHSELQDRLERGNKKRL
UniProt Q9P287, whole entry, looked up: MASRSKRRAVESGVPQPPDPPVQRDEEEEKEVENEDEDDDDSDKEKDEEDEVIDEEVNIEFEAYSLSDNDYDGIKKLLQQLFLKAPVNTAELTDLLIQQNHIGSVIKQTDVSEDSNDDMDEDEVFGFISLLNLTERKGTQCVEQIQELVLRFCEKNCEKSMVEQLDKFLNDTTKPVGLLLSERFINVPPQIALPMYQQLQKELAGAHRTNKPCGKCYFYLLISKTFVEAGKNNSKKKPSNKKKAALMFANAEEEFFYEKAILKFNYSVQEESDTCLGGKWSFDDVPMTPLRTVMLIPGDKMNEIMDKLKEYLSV
UniProt O95429: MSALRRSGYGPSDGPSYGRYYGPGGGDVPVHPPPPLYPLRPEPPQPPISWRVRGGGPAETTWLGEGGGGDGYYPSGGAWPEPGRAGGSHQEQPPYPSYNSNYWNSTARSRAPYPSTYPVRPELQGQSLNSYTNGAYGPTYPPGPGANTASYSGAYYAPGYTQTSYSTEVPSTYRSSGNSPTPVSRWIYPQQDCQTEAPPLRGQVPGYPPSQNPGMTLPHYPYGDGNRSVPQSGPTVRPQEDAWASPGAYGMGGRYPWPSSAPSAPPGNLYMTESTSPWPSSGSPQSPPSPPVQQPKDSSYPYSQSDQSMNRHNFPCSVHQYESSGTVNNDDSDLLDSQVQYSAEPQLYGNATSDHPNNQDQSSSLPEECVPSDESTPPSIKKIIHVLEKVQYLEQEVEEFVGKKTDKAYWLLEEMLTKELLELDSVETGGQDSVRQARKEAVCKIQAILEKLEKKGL
UniProt O00512: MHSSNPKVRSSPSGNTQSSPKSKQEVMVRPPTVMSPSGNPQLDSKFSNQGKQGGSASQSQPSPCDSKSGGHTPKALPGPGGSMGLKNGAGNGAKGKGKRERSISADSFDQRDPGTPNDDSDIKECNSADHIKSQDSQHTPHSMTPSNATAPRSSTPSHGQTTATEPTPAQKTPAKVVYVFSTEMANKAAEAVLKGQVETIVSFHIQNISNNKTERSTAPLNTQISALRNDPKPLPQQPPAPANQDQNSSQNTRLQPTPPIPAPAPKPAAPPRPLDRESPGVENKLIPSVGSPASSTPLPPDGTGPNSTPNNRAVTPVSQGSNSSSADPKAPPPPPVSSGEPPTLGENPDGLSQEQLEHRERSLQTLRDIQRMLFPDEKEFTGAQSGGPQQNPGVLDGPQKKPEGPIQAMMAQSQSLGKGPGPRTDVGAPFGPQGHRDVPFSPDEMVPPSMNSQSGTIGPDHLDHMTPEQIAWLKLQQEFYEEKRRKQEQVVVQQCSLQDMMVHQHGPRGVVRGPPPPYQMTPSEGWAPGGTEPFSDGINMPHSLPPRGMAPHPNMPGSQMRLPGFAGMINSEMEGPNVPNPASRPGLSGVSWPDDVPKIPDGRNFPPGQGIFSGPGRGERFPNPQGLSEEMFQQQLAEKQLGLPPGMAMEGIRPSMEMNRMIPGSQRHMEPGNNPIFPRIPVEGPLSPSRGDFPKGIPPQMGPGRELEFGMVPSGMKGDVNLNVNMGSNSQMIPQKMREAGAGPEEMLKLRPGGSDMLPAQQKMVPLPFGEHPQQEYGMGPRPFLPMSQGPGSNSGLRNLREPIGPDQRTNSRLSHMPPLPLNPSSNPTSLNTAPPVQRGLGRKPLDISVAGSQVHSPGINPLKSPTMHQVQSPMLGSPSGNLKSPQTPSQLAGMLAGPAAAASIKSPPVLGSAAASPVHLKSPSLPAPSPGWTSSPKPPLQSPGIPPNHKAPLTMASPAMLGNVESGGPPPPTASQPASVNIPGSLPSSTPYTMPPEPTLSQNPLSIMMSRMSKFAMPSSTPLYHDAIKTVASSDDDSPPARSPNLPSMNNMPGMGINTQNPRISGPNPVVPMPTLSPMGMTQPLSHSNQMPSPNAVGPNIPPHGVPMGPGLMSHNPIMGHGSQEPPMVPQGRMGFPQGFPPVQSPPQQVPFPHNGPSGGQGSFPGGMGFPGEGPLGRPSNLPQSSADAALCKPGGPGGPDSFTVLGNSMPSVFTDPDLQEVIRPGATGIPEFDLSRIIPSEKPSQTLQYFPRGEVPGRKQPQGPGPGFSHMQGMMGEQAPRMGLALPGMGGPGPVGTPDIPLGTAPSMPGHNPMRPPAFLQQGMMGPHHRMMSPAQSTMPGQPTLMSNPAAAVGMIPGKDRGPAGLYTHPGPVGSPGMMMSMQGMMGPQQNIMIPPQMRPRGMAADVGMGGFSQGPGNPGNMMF

The list shows a part of the results.

Compound in this assay: CN1CCc2c(c3ccccc3n2Cc2ccc(C(=O)NO)cc2)C1 [Tubastatin A]
Nature of the assay: log2 fold change, soluble protein after heating vs DMSO (PISA); higher = thermal stabilisation; K562 lysate, 10 uM; active = over 0.2 and 3.5 SD of the protein, either way, in both replicates (recomputed). Summed up: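 To prepare the extract, K562 pellets were dounce-homogenised in PBS pH 7.4 with 1 mM MgCl2, giving crude material at 1 mg/mL protein. This was treated with 10 μM compound for 30 min, then heated in aliquots for 3 min over 48°C-58°C before pooling and addition of NP-40 to 0.5% at 4°C. Centrifugation at 21,000xg for 90 min left soluble protein in the supernatant, which TMTpro 16plex LC-MS/MS quantified with equalised channel sums. Results are log-two fold changes in thermal stability compared with solvent controls, from duplicates.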
As to BIRC2 (UniProt Q13490), the log2 fold change is inactive: 0.001.

As for BTN2A1 (UniProt Q7KYR7), the log2 fold change was inactive: 0.072.

BAIAP2L1 (UniProt Q9UHR4): the log2 fold change was inactive: 0.029.

In the case of BIRC6 (UniProt Q9NR09), the log2 fold change is inactive: -0.046.

With BACH1 (UniProt O14867), the log2 fold change is inactive: 0.024. For the target BPNT1 (UniProt O95861), the log2 fold change is inactive: 0.035.

Turning to BTBD6 (UniProt Q96KE9), the log2 fold change is inactive: 0.241. Under BAG3 (UniProt O95817) stands inactive: 0.024; under BRCC3 (UniProt P46736), inactive: -0.005. For the target BRIX1 (UniProt Q8TDN6), the log2 fold change is inactive: -0.013.

For BNIP1 (UniProt Q12981), the log2 fold change is inactive: -0.045. Under BCAS2 (UniProt O75934) stands inactive: -0.013.

Turning to BSDC1 (UniProt Q9NW68), the log2 fold change was inactive: 0.052. For BLVRB (UniProt P30043) the value was inactive: -0.04; for BPTF (UniProt Q12830), inactive: -0.08; for BPHL (UniProt Q86WA6), inactive: -0.006. Under BCL10 (UniProt O95999) stands inactive: 0.036; under BAD (UniProt Q92934), inactive: 0.029.

With BROX (UniProt Q5VW32), the log2 fold change was inactive: 0.008. For BTK isoform 2 (UniProt Q06187) the value was inactive: -0.113; for BCAP29 isoform 2 (UniProt Q9UHQ4), inactive: 0.048. For BCKDK (UniProt O14874), the log2 fold change is inactive: -0.117. Under BCCIP isoform 2 (UniProt Q9P287) stands inactive: -0.003; under BCR (UniProt P11274), inactive: -0.181. Under BAG4 (UniProt O95429) stands inactive: -0.096. Under BCL9 (UniProt O00512) stands inactive: 0.239; under BLOC1S3 (UniProt Q6QNY0), inactive: -0.002; under BRCA1 isoform 7 (UniProt P38398), inactive: -0.061. As to BRIP1 (UniProt Q9BX63), the log2 fold change is inactive: -0.028. Under BAG2 (UniProt O95816) stands inactive: -0.002.

BCORL1 isoform 3 (UniProt Q5H9F3): the log2 fold change was inactive: -0.006. Under BRK1 isoform 2 (UniProt Q8WUW1) stands inactive: 0.005.
